Measurements: ChEMBL document CHEMBL2177046, “New aminoimidazoles as β-secretase (BACE-1) inhibitors showing amyloid-β (Aβ) lowering in brain” (J Med Chem, 2012)

Experiment: physchem
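Note: lipophilicity determined by reversed-phase HPLC.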

For `COc1cccc(-c2cccc(C3(C4CCN(C(C)=O)CC4)N=C(C)C(N)=N3)c2)c1` (stereo unspecified), the logD was 2.1.
